Earlier results in PMC9770967, “Native holdup (nHU) to measure binding affinities from cell extracts” (Science Advances, 2022).

Test system: HEK293T cells
Details: estimated total protein concentration; cited from earlier work

Substance	[Protein] (nM) in HEK293T
SNX1: component of the SNX-BAR complex	484 nM
VPS26B: component of the retromer complex	318 nM
